Structures can show the parent of a compound that is named as a salt. This is one part of the list. Single values are uncertain here, since repeats match poorly.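 Cells: ReNCell VM human fetal ventral-midbrain neural progenitors, differentiated mitogen-free. Blinded raters compared doublecortin-stained (early neurons) or tyrosine hydroxylase-stained (dopaminergic neurons) images with untreated wells, where 0 means no change. After repeats and both raters were averaged, compounds scoring 2 or above became hits for retesting.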

Data on 32 compounds can be found in the supplement of paper PMC4635364.

Experiment [1] has as its system ReNCell VM. The experiment can be described thus: neuronal differentiation score (DCX+ cell fraction vs untreated, manual image score) (score (-3 to 3)); higher = more neuronal differentiation. The note with it: 2 uM, 2 weeks.
The subject of experiment [2] is ReNCell VM. The experiment can be described thus: dopaminergic neuron differentiation score (TH+ cell fraction vs untreated, manual image score) (score (0 to 3)); higher = more TH+ dopaminergic neuron differentiation. The note with it: 2 uM, 4 weeks, BDNF 10 ng/ml + GDNF 10 ng/ml.

In the case of `CN[C@@H](C)[C@@H](O)c1ccccc1`, in experiment [1] (library: Spectrum), the neuronal differentiation score was inactive: 0. In addition, in experiment [2] (library: Spectrum), the “dopaminergic neuron differentiation score” value is inactive: 0.
As for `COc1cc([C@@H]2c3cc4c(c(O)c3C[C@H]3COC(=O)[C@@H]32)OCO4)cc(OC)c1OC` [beta-PELTATIN], in experiment [1] (library: Spectrum), the neuronal differentiation score is inactive: 0. Further, the “dopaminergic neuron differentiation score” value in experiment [2] (library: Spectrum) was inactive: 0.
On to `C[CH2][Hg][S]c1ccccc1C(=O)[O-].[Na+]`, for which, in experiment [1] (library: Spectrum), the neuronal differentiation score was inactive: 0. Further, the “dopaminergic neuron differentiation score” value in experiment [2] (library: Spectrum) is inactive: 0.
Take `CN(N=O)c1ccc(O)c(O)c1` [Me-3,4-dephostatin]: in experiment [1] (library: LOPAC), the neuronal differentiation score was inactive: 0. Moreover, the “dopaminergic neuron differentiation score” value in experiment [2] (library: LOPAC) was inactive: 0.
Consider `CC(=O)O[C@@H]1CC[C@@]2(C)[C@@H](CC[C@@H]3[C@@H]2CC[C@]2(C)C(=O)CC[C@@H]32)C1`, for which, in experiment [1] (library: Spectrum), the neuronal differentiation score is inactive: 0. In experiment [2] (library: Spectrum), the “dopaminergic neuron differentiation score” value is inactive: 0.
Regarding `O=c1[nH]c2ccccc2n1CCCN1CCC(n2c(=O)[nH]c3cc(Cl)ccc32)CC1`, the neuronal differentiation score in experiment [1] (library: Spectrum) was inactive: 0. In addition, the “dopaminergic neuron differentiation score” value in experiment [2] (library: Spectrum) was inactive: 0.
With `C=CCSSCC=C`, in experiment [1] (library: Spectrum), the neuronal differentiation score is inactive: 0. Also, the “dopaminergic neuron differentiation score” value in experiment [2] (library: Spectrum) is inactive: 0.
With `O=[N+]([O-])c1ccc2nc(N3CCNCC3)ccc2c1` [Quipazine, 6-nitro-, maleate], the neuronal differentiation score in experiment [1] (library: LOPAC) is inactive: 0. Further, in experiment [2] (library: LOPAC), the “dopaminergic neuron differentiation score” value was inactive: 0.
As for `Nc1ccc([As](=O)(O)O)cc1`, in experiment [1] (library: Spectrum), the neuronal differentiation score is inactive: 1. In addition, the “dopaminergic neuron differentiation score” value in experiment [2] (library: Spectrum) was inactive: 0.
In the same order, the values of `COC(=O)NC(=S)Nc1ccccc1NC(=S)NC(=O)OC` are inactive: 0 and inactive: 0.
`COP(=O)(OC)C(O)C(Cl)(Cl)Cl` (centres undefined): the neuronal differentiation score in experiment [1] (library: Spectrum) was inactive: 0. In addition, the “dopaminergic neuron differentiation score” value in experiment [2] (library: Spectrum) is inactive: 0.
Turning to `Clc1ccc(N2CCN(Cc3c[nH]c4ncccc34)CC2)cc1` [L-745,870 hydrochloride], in experiment [1] (library: LOPAC), the neuronal differentiation score was inactive: 0. In addition, in experiment [2] (library: LOPAC), the “dopaminergic neuron differentiation score” value was inactive: 0.
In the case of `COC1=C[C@]23CCCN2CCc2cc4c(cc2[C@@H]3[C@@H]1O)OCO4` [cephalotaxine], the neuronal differentiation score in experiment [1] (library: Natural) was inactive: 0. The “dopaminergic neuron differentiation score” value in experiment [2] (library: Natural) is inactive: 0.
`CC(=O)[O-].CC(=O)[O-].[Cd+2]`: in experiment [1] (library: Spectrum), the neuronal differentiation score is inactive: 0. Moreover, the “dopaminergic neuron differentiation score” value in experiment [2] (library: Spectrum) is inactive: 0.
On to `c1cncc([C@@H]2CCCCN2)c1`, for which, in experiment [1] (library: Spectrum), the neuronal differentiation score was inactive: 0. For the same compound, the “dopaminergic neuron differentiation score” value in experiment [2] (library: Spectrum) was inactive: 0.
In the case of `Oc1cc(Cl)ccc1Oc1ccc(Cl)cc1Cl` [Triclosan], in experiment [1] (library: Prestwick), the neuronal differentiation score was inactive: 0. In addition, in experiment [2] (library: Prestwick), the “dopaminergic neuron differentiation score” value was inactive: 0.
For the compound `COC(=O)C1=CO[C@@H](C)[C@H]2CN3CC[C@]4(C(=O)Nc5ccccc54)[C@@H]3C[C@H]12`, in experiment [1] (library: Spectrum), the neuronal differentiation score is inactive: 0. Besides, the “dopaminergic neuron differentiation score” value in experiment [2] (library: Spectrum) is inactive: 0.
Turning to `C#CCN[C@H](C)Cc1ccccc1` [R-(-)-Desmethyldeprenyl hydrochloride], the neuronal differentiation score in experiment [1] (library: LOPAC) is inactive: 0. The “dopaminergic neuron differentiation score” value in experiment [2] (library: LOPAC) was inactive: 0.
For `N[C@@H]1C[C@H]1c1ccccc1.N[C@H]1C[C@@H]1c1ccccc1`, the neuronal differentiation score in experiment [1] (library: Spectrum) is inactive: -3. Further, the “dopaminergic neuron differentiation score” value in experiment [2] (library: Spectrum) is inactive: 0.
Take `C[C@H](Cc1ccc(OCC(=O)O)cc1)NC[C@H](O)c1cccc(Cl)c1`: the neuronal differentiation score in experiment [1] (library: Tocriscreen) was inactive: 0. Moreover, the “dopaminergic neuron differentiation score” value in experiment [2] (library: Tocriscreen) was inactive: 0.
On to `O=[N+]([O-])O[C@@H]1CO[C@H]2[C@@H]1OC[C@@H]2O` [Isosorbide mononitrate], for which the neuronal differentiation score in experiment [1] (library: Prestwick) was inactive: 0. Also, the “dopaminergic neuron differentiation score” value in experiment [2] (library: Prestwick) is inactive: 0.
As to `O=C1C2CCN(CC2)C1(CO)CO`, the neuronal differentiation score in experiment [1] (library: Tocriscreen) was inactive: 0. For the same compound, the “dopaminergic neuron differentiation score” value in experiment [2] (library: Tocriscreen) is inactive: 0.
For the compound `O=C(O)C1CSC(c2cccnc2)N1` (centres undefined) [2-pyridin-3-yl-thiazolidine-4-carboxylic acid], the neuronal differentiation score in experiment [1] (library: Natural) is inactive: 0. The “dopaminergic neuron differentiation score” value in experiment [2] (library: Natural) was inactive: 0.
In the case of `CC(C)(O)[C@@H]1[C@H]2OC(=O)[C@@H]1[C@]1(O)C[C@H]3O[C@]34C(=O)O[C@H]2[C@]14C`, in experiment [1] (library: Spectrum), the neuronal differentiation score was inactive: 0. The “dopaminergic neuron differentiation score” value in experiment [2] (library: Spectrum) was inactive: 0.
With `CC(=O)O[C@@H]1C[C@@]2(C)[C@H](c3ccoc3)C[C@H]3O[C@]32[C@]2(C)C(=O)C(O)=C3C(C)(C)C(=O)C=C[C@]3(C)[C@@H]12`, the neuronal differentiation score in experiment [1] (library: Spectrum) was inactive: 0. Further, the “dopaminergic neuron differentiation score” value in experiment [2] (library: Spectrum) is inactive: 0.
Consider `C[C@]12CC[C@H](O)C[C@H]1CC[C@@H]1[C@@H]2C[C@@H](O)[C@]2(C)[C@@H](C3=CC(=O)OC3)CC[C@]12O`, for which the neuronal differentiation score in experiment [1] (library: Spectrum) is inactive: 0. The “dopaminergic neuron differentiation score” value in experiment [2] (library: Spectrum) is inactive: 0.
As to `CCCN1CCC[C@@H](c2cccc(O)c2)C1` [S(-)-3PPP hydrochloride], the neuronal differentiation score in experiment [1] (library: LOPAC) is inactive: 0. Besides, the “dopaminergic neuron differentiation score” value in experiment [2] (library: LOPAC) is inactive: 0.
As for `CCCCOC(=O)c1ccccc1C(=O)OCCCC`, the neuronal differentiation score in experiment [1] (library: Spectrum) is inactive: 0. Moreover, the “dopaminergic neuron differentiation score” value in experiment [2] (library: Spectrum) is inactive: 0.
For `O=C(CN1CCCCC1c1cccnc1)c1ccccc1` (centres undefined), the neuronal differentiation score in experiment [1] (library: Natural) was inactive: 0. Besides, the “dopaminergic neuron differentiation score” value in experiment [2] (library: Natural) is inactive: 0.
`NCCc1ccc(O)cc1` [4-Hydroxyphenethylamine hydrochloride]: the neuronal differentiation score in experiment [1] (library: LOPAC) was inactive: 0. Moreover, the “dopaminergic neuron differentiation score” value in experiment [2] (library: LOPAC) was inactive: 0.
As to `CNCCc1cnc[nH]1` [N à-Methylhistamine dihydrochloride], the neuronal differentiation score in experiment [1] (library: Tocriscreen) was inactive: 0. Further, the “dopaminergic neuron differentiation score” value in experiment [2] (library: Tocriscreen) is inactive: 0.
In the case of `CC(Cc1ccccc1)NCCC(c1ccccc1)c1ccccc1` (centres undefined) [Prenylamine lactate], the neuronal differentiation score in experiment [1] (library: Prestwick) is inactive: 0. Further, the “dopaminergic neuron differentiation score” value in experiment [2] (library: Prestwick) was inactive: 0.
